Assay results reported in paper PMC9899268.
No constants are given. Whether binding was seen depends on the method and setting. In cells and extracts the contact can be indirect. Some entries that bind do so weakly or less than the wild type.

Chains of the proteins cited; added tags and fusions are not shown.
UniProt P35222: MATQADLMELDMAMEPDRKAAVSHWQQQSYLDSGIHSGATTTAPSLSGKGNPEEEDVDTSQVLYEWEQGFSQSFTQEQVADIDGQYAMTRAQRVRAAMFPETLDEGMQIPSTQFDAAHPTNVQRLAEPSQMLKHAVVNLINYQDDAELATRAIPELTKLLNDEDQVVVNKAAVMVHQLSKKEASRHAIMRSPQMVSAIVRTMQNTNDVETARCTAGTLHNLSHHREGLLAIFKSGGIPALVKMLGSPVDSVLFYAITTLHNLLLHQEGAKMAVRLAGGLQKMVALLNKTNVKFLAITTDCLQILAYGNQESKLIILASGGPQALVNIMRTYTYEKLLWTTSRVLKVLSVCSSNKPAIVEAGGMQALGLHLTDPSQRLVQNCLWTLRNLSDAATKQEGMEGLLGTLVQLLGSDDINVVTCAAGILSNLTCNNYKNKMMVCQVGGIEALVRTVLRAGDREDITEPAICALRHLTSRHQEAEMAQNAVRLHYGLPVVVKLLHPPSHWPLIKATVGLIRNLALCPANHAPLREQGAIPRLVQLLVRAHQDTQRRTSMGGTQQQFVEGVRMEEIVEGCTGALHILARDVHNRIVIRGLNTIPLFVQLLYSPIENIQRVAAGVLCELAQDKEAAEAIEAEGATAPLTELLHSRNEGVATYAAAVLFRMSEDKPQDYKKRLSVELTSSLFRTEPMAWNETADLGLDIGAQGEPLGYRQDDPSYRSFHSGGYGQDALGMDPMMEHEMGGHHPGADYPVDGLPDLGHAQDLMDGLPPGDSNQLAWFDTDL

T1: SEC62 (human (endogenous in A498)) (UniProt Q99442)
T1 sequence: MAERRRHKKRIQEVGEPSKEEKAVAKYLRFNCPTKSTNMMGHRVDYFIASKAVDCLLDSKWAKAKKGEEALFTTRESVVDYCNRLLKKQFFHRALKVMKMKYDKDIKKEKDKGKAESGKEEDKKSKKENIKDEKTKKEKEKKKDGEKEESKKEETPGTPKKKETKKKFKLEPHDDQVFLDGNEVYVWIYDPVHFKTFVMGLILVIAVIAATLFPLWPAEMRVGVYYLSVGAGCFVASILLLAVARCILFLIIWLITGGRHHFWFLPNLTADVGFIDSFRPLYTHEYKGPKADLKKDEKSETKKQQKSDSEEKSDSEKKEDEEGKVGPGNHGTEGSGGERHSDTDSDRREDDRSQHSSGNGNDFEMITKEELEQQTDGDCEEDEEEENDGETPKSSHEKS

B1: SEMA6A (protein, UniProt Q9H2E6 19-1030)
chain: GFPEDSEPISISHGNYTKQYPVFVGHKPGRNTTQRHRLDIQMIMIMNGTLYIAARDHIYTVDIDTSHTEEIYCSKKLTWKSRQADVDTCRMKGKHKDECHNFIKVLLKKNDDALFVCGTNAFNPSCRNYKMDTLEPFGDEFSGMARCPYDAKHANVALFADGKLYSATVTDFLAIDAVIYRSLGESPTLRTVKHDSKWLKEPYFVQAVDYGDYIYFFFREIAVEYNTMGKVVFPRVAQVCKNDMGGSQRVLEKQWTSFLKARLNCSVPGDSHFYFNILQAVTDVIRINGRDVVLATFSTPYNSIPGSAVCAYDMLDIASVFTGRFKEQKSPDSTWTPVPDERVPKPRPGCCAGSSSLERYATSNEFPDDTLNFIKTHPLMDEAVPSIFNRPWFLRTMVRYRLTKIAVDTAAGPYQNHTVVFLGSEKGIILKFLARIGNSGFLNDSLFLEEMSVYNSEKCSYDGVEDKRIMGMQLDRASSSLYVAFSTCVIKVPLGRCERHGKCKKTCIASRDPYCGWIKEGGACSHLSPNSRLTFEQDIERGNTDGLGDCHNSFVALNGHSSSLLPSTTTSDSTAQEGYESRGGMLDWKHLLDSPDSTDPLGAVSSHNHQDKKGVIRESYLKGHDQLVPVTLLAIAVILAFVMGAVFSGITVYCVCDHRRKDVAVVQRKEKELTHSRRGSMSSVTKLSGLFGDTQSKDPKPEAILTPLMHNGKLATPGNTAKMLIKADQHHLDLTALPTPESTPTLQQKRKPSRGSREWERNQNLINACTKDMPPMGSPVIPTDLPLRASPSHIPSVVVLPITQQGYQHEYVDQPKMSEVAQMALEDQAATLEYKTIKEHLSSKSPNHGVNLVENLDSLPPKVPQREASLGPPGASLSQTGLSKRLEMHHSSSYGVDYKRSYPTNSLTRSHQATTLKRNNTNSSNSSHLSRNQSFGRGDNPPPAPQRVDSIQVHSSQPSGQAVTVSRQPSLNAYNSLTRSGLKRTPSLKPDVPPKPSFAPLSTSMKPNDACT

Target: T1, SEC62 (human (endogenous in A498))
Experiment: co-IP; endogenous IP from A498 cell lysate with anti-SEMA6A, anti-SEC62 or IgG and protein A/G beads, 4 °C overnight; IP buffer 100 mM NaCl, 20 mM Tris-HCl pH 8.0, 0.5 mM EDTA, 0.5% NP-40; immunoblot; for SEC62 with β-catenin also cells stably expressing con-shRNA or SEMA6A-shRNA, vector or FLAG-SEMA6A

Molecule	binding
β-catenin (from UniProt P35222 1-781)	binds
B1	binds
